For at least one entry, the source does not settle the construct or the ends of the probe. The comparison behind a weaker result is the experiment's own reference, which may not be listed here. Where a protein sequence is shown, tags need not be part of it.
Biological target: T1, MrpR G136E (Bacillus subtilis prophage SPβ c2) (UniProt O34558)
T1 sequence (looked up, limits assumed): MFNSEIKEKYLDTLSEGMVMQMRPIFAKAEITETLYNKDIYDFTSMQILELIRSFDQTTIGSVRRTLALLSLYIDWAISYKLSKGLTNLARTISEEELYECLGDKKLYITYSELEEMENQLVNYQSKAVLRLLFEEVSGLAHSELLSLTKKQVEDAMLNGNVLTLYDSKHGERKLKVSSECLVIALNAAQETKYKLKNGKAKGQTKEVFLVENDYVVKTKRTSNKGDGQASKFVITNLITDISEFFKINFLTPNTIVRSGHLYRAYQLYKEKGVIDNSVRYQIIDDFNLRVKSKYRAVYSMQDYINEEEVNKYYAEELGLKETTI
Assay: EMSA
Details: herring sperm DNA, EMSA: same buffer plus 50 ug/ml herring sperm DNA, RT 15 min, recombinant protein, probe letters rebuilt from the primers and the genome

Sequence: CAGCATACTCCAATGCACTTCTTGCTGCCTTTGTCTTAACATCTAGGTTTAAACAGTAATCTTTCATTAATTCATATTCACGGTCTGGATACTGACTCTTAACAATGTTGACTATTGAAGAAAATTCATTAAATGTTTTCCCATCATGGTTTAAGAAGTCATAAAGAGGATTGGGGTTTTTAAGGCCAGCTACTGTTGCCCATTTATTCATTAAAGAGTTGTCATTTTCCAAGTCTTTCTTCATAGCTATCCTTATTAACTCCATTATTTCCCCTCATTTCTTTTTGTTGTCTTTATTGGTTAACTTAATAATACTATAGATCACATTACGAGTCAATTATTTTATACATATTTTTTGTATTTGTAATCTCTTTAAAATTCCAATTTTAACTAGACACAATGAGGACTAAACCTCATTGTGTTCTTCTAAAGCAAAAGGTCCTACTTAAGGCTATAATACACCTCTTCCGCAATATCCTTTGCAAACCTAGCGAAAATTTCTCTATCAAAACTTCTTAAGCATTTAGCTAAGGACAGGATATTCTGCACATGGTCAAGTGTATTAGTCAAATCTAATGCCGTTACCAAAGAAAGCAACATGTCTTTGTAGTTCATATCTCCGGC (double strand) [PaimR EMSA fragment with SPBRE]
- binding result (comparable shift needs approx. 10- to 20-fold excess over 50 nM DNA, 6% native PAGE 0.5x TBE, protein details: C-terminal His6, label: Dyomics 781 at 5' end of reverse primer): binds more weakly

Sequence: CTTTTGTAATAGCAGCCGATTGTAATGTCAATGTAGCTGCATCGTCTATTGACATGAAAAATCTGGTCATGTTTTTGTCTGTGATGGTCAGAGGTTCACCCTCCATCATCTGTTCAAATAATATGGGGATGACCGAACCTCTGGAACCGAGAACATTTCCAAAGCGGACCGAACAAAACAAGGTTCCTTTGTTTTGGACGTGGCGGTTTGCTTGATGAAACAGCTTTTCAGATAACAGCTTGGTGGCACCCATTGTGTTCACAGGAGATACAGCTTTATCTGTTTTTTAAGATACTTACTACTTTTCTTAGTGGAAACTATTAGTGGCTGTGAGGTCAAAAATGAAATTAAACCTTAGGATAGGGGTTATTTCAAATTGAGCTGGTATAGGCCCTTTTCTTTTTTGTGTCATGTTAACAATAACATCTTTTAAGACCATCCTTAATAGCTCGTTCTTTTTCTCTGAGCTTGATTCAATGTGATACTGGTCAATTATTTTATTTATGTTGTTTCTCACTGTATTACTGTCTATTTCTGATTGTGTATCTTGTAATCCATTGAGCTCATTCTTTGCATTCTGGAGCTCTTTAAATTCTTCATCTAATGCAGC (double strand) [attR EMSA fragment (no SPBRE)]
- binding result (shift only at DNA:protein 1:100 (50 nM DNA), 6% native PAGE 0.5x …, protein details: C-terminal His6, label: Cy3 at 5' end of forward primer): binds more weakly
